The text below walks through data of paper PMC5592675.

For test [1], the target named is T1, Myc-tagged LGR5-WT (leucine-rich repeat-containing G protein-coupled receptor 5) (UniProt O75473).
T1 sequence: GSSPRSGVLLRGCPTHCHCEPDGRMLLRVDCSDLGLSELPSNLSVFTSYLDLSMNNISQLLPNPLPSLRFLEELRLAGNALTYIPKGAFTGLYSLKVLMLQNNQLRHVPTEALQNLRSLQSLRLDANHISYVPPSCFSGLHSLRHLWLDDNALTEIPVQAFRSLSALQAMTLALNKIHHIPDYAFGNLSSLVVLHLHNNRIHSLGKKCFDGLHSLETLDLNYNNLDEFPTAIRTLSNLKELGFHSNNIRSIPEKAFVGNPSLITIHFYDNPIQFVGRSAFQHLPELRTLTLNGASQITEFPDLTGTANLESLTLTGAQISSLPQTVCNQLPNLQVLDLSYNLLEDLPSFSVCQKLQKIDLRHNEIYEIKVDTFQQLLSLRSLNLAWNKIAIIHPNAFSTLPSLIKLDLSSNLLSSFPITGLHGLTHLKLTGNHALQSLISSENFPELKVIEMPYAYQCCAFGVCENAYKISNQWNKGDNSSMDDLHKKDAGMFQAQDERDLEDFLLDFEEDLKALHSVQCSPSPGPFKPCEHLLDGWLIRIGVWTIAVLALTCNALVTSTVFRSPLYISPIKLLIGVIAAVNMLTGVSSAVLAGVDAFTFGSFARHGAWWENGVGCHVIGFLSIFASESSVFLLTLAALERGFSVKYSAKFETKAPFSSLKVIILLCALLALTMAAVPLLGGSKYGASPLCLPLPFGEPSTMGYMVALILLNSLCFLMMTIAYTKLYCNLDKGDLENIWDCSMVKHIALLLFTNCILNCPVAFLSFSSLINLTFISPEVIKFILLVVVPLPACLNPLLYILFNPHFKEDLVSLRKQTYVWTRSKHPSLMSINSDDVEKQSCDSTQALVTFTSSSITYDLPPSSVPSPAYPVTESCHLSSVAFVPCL
Kind of test: co-IP; recombinant overexpression in HEK293T cells; whole-cell lysates incubated ~3-4 h at 4 °C with antibody magnetic beads (anti-Myc, anti-FLAG listed); Western blot. For orientation: A western blot detects proteins with antibodies after separation by electrophoresis.

Test [2] concerns the target T2, Myc-tagged LGR5-ΔC (C-terminal tail-truncated mutant, lacking AA 837-907) (UniProt O75473).
T2 sequence: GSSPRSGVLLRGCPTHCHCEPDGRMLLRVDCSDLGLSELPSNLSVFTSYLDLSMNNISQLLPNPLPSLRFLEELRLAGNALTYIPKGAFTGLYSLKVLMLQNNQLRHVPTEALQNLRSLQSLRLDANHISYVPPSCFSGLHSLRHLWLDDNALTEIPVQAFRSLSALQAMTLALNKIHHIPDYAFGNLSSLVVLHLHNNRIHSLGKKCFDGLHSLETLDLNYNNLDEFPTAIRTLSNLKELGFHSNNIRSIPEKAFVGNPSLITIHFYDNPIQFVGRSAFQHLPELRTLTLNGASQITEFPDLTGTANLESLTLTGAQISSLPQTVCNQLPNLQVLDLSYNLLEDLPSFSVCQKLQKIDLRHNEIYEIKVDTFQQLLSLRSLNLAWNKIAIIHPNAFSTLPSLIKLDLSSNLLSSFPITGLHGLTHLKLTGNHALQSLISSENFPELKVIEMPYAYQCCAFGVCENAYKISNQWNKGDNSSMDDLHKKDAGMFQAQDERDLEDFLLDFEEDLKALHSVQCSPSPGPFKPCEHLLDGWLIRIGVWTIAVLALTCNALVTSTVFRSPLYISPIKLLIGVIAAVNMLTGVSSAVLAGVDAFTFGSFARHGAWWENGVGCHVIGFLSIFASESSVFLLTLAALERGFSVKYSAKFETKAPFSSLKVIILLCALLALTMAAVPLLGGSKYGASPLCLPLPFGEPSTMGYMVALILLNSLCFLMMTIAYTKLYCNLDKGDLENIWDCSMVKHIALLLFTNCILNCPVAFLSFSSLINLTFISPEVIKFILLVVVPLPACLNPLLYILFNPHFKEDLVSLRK
The description is as above.

In test [3] the target is T3, endogenous LGR5 of LoVo colon cancer cells (human (endogenous in LoVo)) (UniProt O75473).
T3 sequence: T1 sequence
The test is described as follows: co-IP; endogenous proteins of LoVo cells; precipitation with an LGR5-specific antibody; Western blot for IQGAP1.

In test [4] the target is T1, Myc-tagged LGR5-WT (leucine-rich repeat-containing G protein-coupled receptor 5). Kind of test: co-IP; purified IQGAP1 fragment DR6 (from E. coli) with LGR5-WT or LGR5-ECD; Western blot; only the binder purified.

These are yes or no findings as the source states them, for the method shown. Binding seen in cells or lysates may run through a third protein. Some binding calls cover weakened binding; strength is not graded here. For some assays here: Where a sequence is shown, tags or fusion partners need not be part of it.

Take “FLAG-tagged IQGAP1 (IQ motif-containing GTPase-activating protein 1) (from UniProt Q9JKF1 1-1657)”: the binding result in test [1] and in test [2] was “binds” in each case.

In the case of “endogenous human IQGAP1 (from UniProt P46940 1-1657)”, in test [3], the binding result is listed as “binds”.

With “purified IQGAP1 fragment spanning amino acids 877-1558 (DR6) (from UniProt P46940 877-1558) (domain or fragment)”, the binding entry in test [4] is “binds”.

B1: FLAG-IQGAP1 C-terminal half spanning amino acids 893-1657 (domain or fragment, UniProt Q9JKF1 893-1657)
chain: REEVITLIRSNQQLENDLNLMDIKIGLLVKNKITLQDVVSHSKKLTKKNKEQLSDMMMINKQKGGLKALSKEKREKLEAYQHLFYLLQTNPTYLAKLIFQMPQNKSTKFMDSVIFTLYNYASNQREEYLLLRLFQTALQEEIKSKVDQIQEIVTGNPTVIKMVVSFNRGARGQNALRQILAPVVKEIMDDKSLNIKTDPVDIYKSWVNQMESQTGEASKLPYDVTPEQALSHEEVKTRLDNSIRNMRAVTDKFLSAIVSSVDKIPYGMRFIAKVLKDSLHEKFPDAGEDELLKIIGNLLYYRYMNPAIVAPDAFDIIDLSAGGQLTTDQRRNLGSIAKMLQHAASNKMFLGDNAHLSIINEYLSQSYQKFRRFFQVACDVPELQDKFNVDEYSDLVTLTKPVIYISIGEIINTHTLLLDHQDAIAPEHNDPIHELLDDLGEVPTIESLIGESCGNSNDPNKEALAKTEVSLTLTNKFDVPGDENAEMDARTILLNTKRLIVDVIRFQPGETLTEILETPATNEQEAEHQRAMQRRAIRDAKTPDKMKKSKPMKEDNNLSLQEKKEKIQTGLKKLTELGTVDPKNRYQELINDIAKDIRNQRRYRQRRKAELVKLQQTYSALNSKATFYGEQVDYYKSYIKTCLDNLASKGKVSKKPREMKGKKSKKISLKYTAARLHEKGVLLEIEDLQANQFKNVIFEIGPTEEVGDFEVKAKFMGVQMETFMLHYQDLLQLQYEGVAVMKLFDRAKVNVNLLIFLLNKKFYGK
For the molecule B1, the binding result in test [1] is listed as “binds”.
